Measured values from PMC12205651, “A 36-base hairpin within lncRNA DRAIC, which is modulated by alternative splicing, interacts with the IKKα coiled-coil domain and inhibits NF-κB and tumor cell phenotypes”.

How the values were obtained:
IKKα-His [1] = molecular target: T1, IKKα-His (UniProt O15111); assay: EMSA; conditions: EMSA: LightShift kit, 22 °C, 25 min; commercial protein; protein details: His
T1 sequence (looked up, limits assumed): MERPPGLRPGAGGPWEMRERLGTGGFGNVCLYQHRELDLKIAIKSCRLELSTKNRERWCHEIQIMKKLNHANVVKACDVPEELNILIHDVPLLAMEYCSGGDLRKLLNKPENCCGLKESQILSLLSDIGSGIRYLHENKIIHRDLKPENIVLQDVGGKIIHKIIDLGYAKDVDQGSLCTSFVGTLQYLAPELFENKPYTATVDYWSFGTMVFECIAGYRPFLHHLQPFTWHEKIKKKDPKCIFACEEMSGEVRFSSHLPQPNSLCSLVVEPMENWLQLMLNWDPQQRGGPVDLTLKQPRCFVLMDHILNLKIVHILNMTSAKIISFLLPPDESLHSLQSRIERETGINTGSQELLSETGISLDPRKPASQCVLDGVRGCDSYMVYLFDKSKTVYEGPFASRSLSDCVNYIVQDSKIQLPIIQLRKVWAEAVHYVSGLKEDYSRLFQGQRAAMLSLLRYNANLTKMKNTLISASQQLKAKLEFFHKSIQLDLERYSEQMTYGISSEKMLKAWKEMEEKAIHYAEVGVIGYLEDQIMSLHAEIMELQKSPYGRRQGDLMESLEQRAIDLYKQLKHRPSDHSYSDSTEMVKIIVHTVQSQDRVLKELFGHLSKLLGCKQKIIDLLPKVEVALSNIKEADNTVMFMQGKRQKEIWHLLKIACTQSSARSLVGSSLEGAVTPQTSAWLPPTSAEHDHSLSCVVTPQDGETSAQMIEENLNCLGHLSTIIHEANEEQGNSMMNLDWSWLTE

IKKα-His [2] = molecular target: T1, IKKα-His; assay: pull-down (in vitro RIP-qPCR); conditions: negative control; pull-down: 25 mM HEPES pH 7.5, 150 mM NaCl, 0.05% NP-40, 10% glycerol, RT; commercial protein; protein details: His

Q: Does “CCUUGGUGGCCCAUAGUGCCAAUGGCCCGCCAAAGG [M3 RNA]” bind (IKKα-His [1])?
A: no binding

Q: Does “GAGACCCAAGCUUGGUACCGAGCUCGGAUCCUCGAGCAUGCAUCUAGAGG [EV RNA]” bind (IKKα-His [2])?
A: no binding

Construct, isoform or probe ends are uncertain for at least one entry. Negatives hold for the conditions tested. At least one verdict rests on a figure or table, not on a statement of the authors. Where a protein sequence is shown, tags need not be part of it.
